Measured values published in article PMC7289602, “Measuring ligand-cell surface receptor affinities with axial line-scanning fluorescence correlation spectroscopy” (eLife, 2020).
No constants are given. Whether binding was seen depends on the method and setting. Binding can be weak; no strength is given. Tags and fused reporters may be left off the sequences shown.

How the values were obtained:
[1] = target: xKremen2-mCherry co-expressed with unlabeled LRP6 (Xenopus laevis | human); test: dual-color spinning disk confocal imaging of ligand staining on live cells; live NCI-H1703 cells transiently expressing xKremen2-mCherry, without or with unlabeled LRP6, in conditioned medium with four DKK1-eGFP concentrations
[2] = target: (Xenopus laevis) xKremen2-mCherry (Xenopus laevis); test: as above

binding [1]: binds | binding [2]: binds
B1: human Dickkopf1 fused to eGFP (DKK1-eGFP) (ligand, UniProt O94907 32-266, looked up)
chain: TLNSVLNSNAIKNLPPPLGGAAGHPGSAVSAAPGILYPGGNKYQTIDNYQPYPCAEDEECGTDEYCASPTRGGDAGVQICLACRKRRKRCMRHAMCCPGNYCKNGICVSSDQNHFRGEIEETITESFGNDHSTLDGYSRRTTLSSKMYHTKGQEGSVCLRSSDCASGLCCARHFWSKICKPVLKEGQVCTKHRRKGSHGLEIFQRCYCGEGLSCRIQKDHHQASNSSRLHTCQRH
notes: Dickkopf1 (DKK1), human; also called hDKK1-eGFP
